Substitutions are numbered along the chain they refer to. Results are given in words; binding and its absence hold for the method and conditions named. For some of these results: A result given as binding can be weak or reduced; the word gives no strength. Tags and fused reporters may be left off the sequences shown.

Common to all, as to assay: two-hybrid; bacterial two-hybrid in E. coli BTH101; signal quantified by β-galactosidase assay (ONPG, ΔOD420/min/ml) of cultures grown 16 h at 30°C with IPTG
Assay [1] concerns the target T1, wild-type ϕC31 integrase fused to T18 (Int-T18 fusion, pEY111) (Streptomyces phage ϕC31) (UniProt Q9T221).
T1 sequence: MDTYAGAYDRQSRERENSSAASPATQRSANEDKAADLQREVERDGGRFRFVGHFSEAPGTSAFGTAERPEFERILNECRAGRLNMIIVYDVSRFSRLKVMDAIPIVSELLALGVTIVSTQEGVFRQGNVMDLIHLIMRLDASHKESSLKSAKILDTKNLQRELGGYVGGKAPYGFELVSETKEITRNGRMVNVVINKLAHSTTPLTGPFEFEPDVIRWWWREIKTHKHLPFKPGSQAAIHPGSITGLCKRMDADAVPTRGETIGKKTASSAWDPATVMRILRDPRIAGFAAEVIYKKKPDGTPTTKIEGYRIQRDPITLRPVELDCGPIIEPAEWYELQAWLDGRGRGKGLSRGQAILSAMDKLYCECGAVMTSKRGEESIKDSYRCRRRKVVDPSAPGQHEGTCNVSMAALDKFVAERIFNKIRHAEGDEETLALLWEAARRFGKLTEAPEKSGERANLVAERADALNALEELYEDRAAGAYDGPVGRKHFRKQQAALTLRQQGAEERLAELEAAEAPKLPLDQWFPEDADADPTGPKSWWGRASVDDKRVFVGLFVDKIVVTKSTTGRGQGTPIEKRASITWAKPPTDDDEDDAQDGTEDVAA

Assay [2] addresses T2, ϕC31 IntI582V fused to T18 (Streptomyces phage ϕC31) (UniProt Q9T221).
T2 sequence: T1 sequence with I582V

The target of assay [3] is T3, ϕC31 integrase lacking the coiled-coil motif (aa 457 to 523 deleted) fused to T18 (Streptomyces phage ϕC31) (UniProt Q9T221).
T3 sequence: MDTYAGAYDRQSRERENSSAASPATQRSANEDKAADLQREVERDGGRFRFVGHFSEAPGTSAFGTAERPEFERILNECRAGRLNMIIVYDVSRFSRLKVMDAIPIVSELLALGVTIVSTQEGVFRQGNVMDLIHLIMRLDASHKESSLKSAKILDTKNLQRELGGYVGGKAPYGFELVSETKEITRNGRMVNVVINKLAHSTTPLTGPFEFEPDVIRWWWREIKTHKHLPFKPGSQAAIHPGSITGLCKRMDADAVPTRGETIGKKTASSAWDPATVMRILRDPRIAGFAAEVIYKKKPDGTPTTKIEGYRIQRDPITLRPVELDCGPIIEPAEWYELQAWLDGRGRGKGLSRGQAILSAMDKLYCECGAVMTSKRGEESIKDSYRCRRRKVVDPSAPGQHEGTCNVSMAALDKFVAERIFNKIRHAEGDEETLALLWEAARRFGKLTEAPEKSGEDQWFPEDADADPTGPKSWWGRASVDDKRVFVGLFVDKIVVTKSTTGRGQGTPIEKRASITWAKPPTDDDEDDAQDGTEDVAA

Assay [4] has as its target T4, ϕC31 IntE476G fused to T18 (Streptomyces phage ϕC31) (UniProt Q9T221).
T4 sequence: T1 sequence with E476G

Take “T25-ϕC31 gp3 (wild type) fusion protein (Streptomyces phage ϕC31)”: the binding result in assay [1] is “binds”; in assay [2], “binds”; in assay [3], “no binding”; in assay [4], “binds”.

Source of the values: PMC5814800.
